# The other results are listed elsewhere or left out.
# Assays:
# Experiment in all cases: glycan array binding signal (z-score within array); higher = stronger binding
# Conditions in all cases: glycan notation: IUPAC condensed, linker removed
# [1] = target: Neu5Ac(a2-3)Gal(b1-3)[Neu5Ac(a2-6)]GlcNAc(b1-3)[Fuc(a1-3)[Gal(b1-4)]GlcNAc(b1-6)]Gal(b1-4)Glc
# How it was run: (§1)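 Columns mapping to the same glycan were averaged after glycan names were converted to IUPAC-condensed notation. The data come from 3228 arrays in the Consortium for Functional Glycomics database, limited to those with an available protein sequence. Binding is reported as a within-array Z-score averaged across arrays of one protein sequence and across linkers.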
# [2] = target: Neu5Ac(a2-3)Gal(b1-3)]Neu5Ac(a2-3)Gal(b1-4)]GlcNAc
# How it was run: as §1
# Neu5Ac(a2-3)Gal(b1-4)Glc = target: Neu5Ac(a2-3)Gal(b1-4)Glc
# How it was run: as §1
# [3] = target: Neu5Ac(a2-3)Gal(b1-4)GlcNAc
# How it was run: as §1
# [4] = target: Neu5Ac(a2-3)Gal(b1-4)GlcNAc(b1-2)Man
# How it was run: as §1
# [5] = target: Neu5Ac(a2-3)Gal(b1-4)GlcNAc(b1-2)Man(a1-3)[GlcNAc(b1-4)][Neu5Ac(a2-3)Gal(b1-4)GlcNAc(b1-2)Man(a1-6)]Man(b1-4)GlcNAc(b1-4)GlcNAc
# How it was run: as §1
# [6] = target: Neu5Ac(a2-3)Gal(b1-4)GlcNAc(b1-2)Man(a1-3)[Neu5Ac(a2-3)Gal(b1-4)GlcNAc(b1-2)Man(a1-6)]Man(b1-4)GlcNAc(b1-4)GlcNAc
# How it was run: as §1
# [7] = target: Neu5Ac(a2-3)Gal(b1-4)GlcNAc(b1-2)Man(a1-3)[Neu5Ac(a2-3)Gal(b1-4)GlcNAc(b1-2)Man(a1-6)]Man(b1-4)GlcNAc(b1-4)[Fuc(a1-6)]GlcNAc
# How it was run: as §1
# [8] = target: Neu5Ac(a2-3)Gal(b1-4)GlcNAc(b1-2)Man(a1-3)[Neu5Ac(a2-6)Gal(b1-4)GlcNAc(b1-2)Man(a1-6)]Man(b1-4)GlcNAc(b1-4)GlcNAc
# How it was run: as §1
# [9] = target: Neu5Ac(a2-3)Gal(b1-4)GlcNAc(b1-2)[Neu5Ac(a2-3)Gal(b1-4)GlcNAc(b1-4)]Man(a1-3)[GlcNAc(b1-4)][Neu5Ac(a2-3)Gal(b1-4)GlcNAc(b1-2)[Neu5Ac(a2-3)Gal(b1-4)GlcNAc(b1-6)]Man(a1-6)]Man(b1-4)GlcNAc(b1-4)GlcNAc
# How it was run: as §1
# [10] = target: Neu5Ac(a2-3)Gal(b1-4)GlcNAc(b1-2)[Neu5Ac(a2-3)Gal(b1-4)GlcNAc(b1-4)]Man(a1-3)[GlcNAc(b1-4)][Neu5Ac(a2-3)Gal(b1-4)GlcNAc(b1-4)Man(a1-6)]Man(b1-4)GlcNAc(b1-4)GlcNAc
# How it was run: as §1
# [11] = target: Neu5Ac(a2-3)Gal(b1-4)GlcNAc(b1-2)[Neu5Ac(a2-3)Gal(b1-4)GlcNAc(b1-6)]Man(a1-6)[Neu5Ac(a2-3)Gal(b1-4)GlcNAc(b1-2)Man(a1-3)][GlcNAc(b1-4)]Man(b1-4)GlcNAc(b1-4)GlcNAc
# How it was run: as §1
# [12] = target: Neu5Ac(a2-3)Gal(b1-4)GlcNAc(b1-3)Gal
# How it was run: as §1
# [13] = target: Neu5Ac(a2-3)Gal(b1-4)GlcNAc(b1-3)Gal(b1-3)GlcNAc
# How it was run: as §1
# [14] = target: Neu5Ac(a2-3)Gal(b1-4)GlcNAc(b1-3)Gal(b1-4)GlcNAc
# How it was run: as §1
# [15] = target: Neu5Ac(a2-3)Gal(b1-4)GlcNAc(b1-3)Gal(b1-4)GlcNAc(b1-2)Man(a1-3)[Neu5Ac(a2-3)Gal(b1-4)GlcNAc(b1-3)Gal(b1-4)GlcNAc(b1-2)Man(a1-6)]Man(b1-4)GlcNAc(b1-4)GlcNAc
# How it was run: as §1
# [16] = target: Neu5Ac(a2-3)Gal(b1-4)GlcNAc(b1-3)Gal(b1-4)GlcNAc(b1-3)Gal(b1-4)GlcNAc
# How it was run: as §1
# [17] = target: Neu5Ac(a2-3)Gal(b1-4)GlcNAc(b1-3)Gal(b1-4)GlcNAc(b1-3)Gal(b1-4)GlcNAc(b1-2)Man(a1-3)[Neu5Ac(a2-3)Gal(b1-4)GlcNAc(b1-3)Gal(b1-4)GlcNAc(b1-3)Gal(b1-4)GlcNAc(b1-2)Man(a1-6)]GalNAc
# How it was run: as §1
# [18] = target: Neu5Ac(a2-3)Gal(b1-4)GlcNAc(b1-3)Gal(b1-4)GlcNAc(b1-3)GalNAc
# How it was run: as §1
# [19] = target: Neu5Ac(a2-3)Gal(b1-4)GlcNAc(b1-3)Gal(b1-4)GlcNAc(b1-3)[Neu5Ac(a2-3)Gal(b1-4)GlcNAc(b1-3)Gal(b1-4)GlcNAc(b1-6)]GalNAc
# How it was run: as §1
# [20] = target: Neu5Ac(a2-3)Gal(b1-4)GlcNAc(b1-3)Gal(b1-4)GlcNAc(b1-6)[Gal(b1-3)]GalNAc
# How it was run: as §1
# [21] = target: Neu5Ac(a2-3)Gal(b1-4)GlcNAc(b1-3)Gal(b1-4)[Fuc(a1-3)]GlcNAc
# How it was run: as §1
# [22] = target: Neu5Ac(a2-3)Gal(b1-4)GlcNAc(b1-3)GalNAc
# How it was run: as §1
# [23] = target: Neu5Ac(a2-3)Gal(b1-4)GlcNAc(b1-3)[Neu5Ac(a2-3)Gal(b1-4)GlcNAc(b1-6)]GalNAc
# How it was run: as §1
# [24] = target: Neu5Ac(a2-3)Gal(b1-4)GlcNAc(b1-6)GalNAc
# How it was run: as §1
# [25] = target: Neu5Ac(a2-3)Gal(b1-4)GlcNAc(b1-6)[Gal(b1-3)]GalNAc
# How it was run: as §1
# [26] = target: Neu5Ac(a2-3)Gal(b1-4)GlcNAc(b1-6)[Neu5Ac(a2-3)Gal(b1-3)]GalNAc
# How it was run: as §1
# [27] = target: Neu5Ac(a2-3)Gal(b1-4)GlcNAc6S
# How it was run: as §1
# [28] = target: Neu5Ac(a2-3)Gal(b1-4)[Fuc(a1-3)]GlcNAc
# How it was run: as §1
# [29] = target: Neu5Ac(a2-3)Gal(b1-4)[Fuc(a1-3)]GlcNAc(b1-2)Man
# How it was run: as §1
# [30] = target: Neu5Ac(a2-3)Gal(b1-4)[Fuc(a1-3)]GlcNAc(b1-3)Gal
# How it was run: as §1
# [31] = target: Neu5Ac(a2-3)Gal(b1-4)[Fuc(a1-3)]GlcNAc(b1-3)Gal(b1-4)GlcNAc
# How it was run: as §1
# [32] = target: Neu5Ac(a2-3)Gal(b1-4)[Fuc(a1-3)]GlcNAc(b1-3)Gal(b1-4)[Fuc(a1-3)]GlcNAc(b1-3)Gal(b1-4)[Fuc(a1-3)]GlcNAc
# How it was run: as §1
# [33] = target: Neu5Ac(a2-3)Gal(b1-4)[Fuc(a1-3)]GlcNAc(b1-3)GalNAc
# How it was run: as §1
# [34] = target: Neu5Ac(a2-3)Gal(b1-4)[Fuc(a1-3)]GlcNAc(b1-6)[Gal(b1-3)]GalNAc
# How it was run: as §1
# [35] = target: Neu5Ac(a2-3)Gal(b1-4)[Fuc(a1-3)]GlcNAc(b1-6)[Neu5Ac(a2-3)Gal(b1-3)]GalNAc
# How it was run: as §1
# [36] = target: Neu5Ac(a2-3)Gal(b1-4)[Fuc(a1-3)]GlcNAc6S
# How it was run: as §1
# [37] = target: Neu5Ac(a2-3)Gal6S(b1-4)GlcNAc
# How it was run: as §1
binder,measurement,setting,value
"MtEccB1 (Mycobacterium tuberculosis H37Rv), O69734 (protein) MGLRLTTKVQVSGWRFLLRRLEHAIVRRDTRMFDDPLQFYSRSIALGIVVAVLILAGAALLAYFKPQGKLGGTSLFTDRATNQLYVLLSGQLHPVYNLTSARLVLGNPANPATVKSSELSKLPMGQTVGIPGAPYATPVSAGSTSIWTLCDTVARADSTSPVVQTAVIAMPLEIDASIDPLQSHEAVLVSYQGETWIVTTKGRHAIDLTDRALTSSMGIPVTARPTPISEGMFNALPDMGPWQLPPIPAAGAPNSLGLPDDLVIGSVFQIHTDKGPQYYVVLPDGIAQVNATTAAALRATQAHGLVAPPAMVPSLVVRIAERVYPSPLPDEPLKIVSRPQDPALCWSWQRSAGDQSPQSTVLSGRHLPISPSAMNMGIKQIHGTATVYLDGGKFVALQSPDPRYTESMYYIDPQGVRYGVPNAETAKSLGLSSPQNAPWEIVRLLVDGPVLSKDAALLEHDTLPADPSPRKVPAGASGAP",glycan array binding signal (z-score),[1],-0.202
same,glycan array binding signal (z-score),[2],0.038
same,glycan array binding signal (z-score),Neu5Ac(a2-3)Gal(b1-4)Glc,0.432
same,glycan array binding signal (z-score),[3],-0.992
same,glycan array binding signal (z-score),[4],0.566
same,glycan array binding signal (z-score),[5],4.06
same,glycan array binding signal (z-score),[6],-1.57
same,glycan array binding signal (z-score),[7],-0.813
same,glycan array binding signal (z-score),[8],-0.619
same,glycan array binding signal (z-score),[9],-0.204
same,glycan array binding signal (z-score),[10],-0.296
same,glycan array binding signal (z-score),[11],-0.334
same,glycan array binding signal (z-score),[12],0.951
same,glycan array binding signal (z-score),[13],-1.08
same,glycan array binding signal (z-score),[14],0.98
same,glycan array binding signal (z-score),[15],0.499
same,glycan array binding signal (z-score),[16],0.229
same,glycan array binding signal (z-score),[17],2.66
same,glycan array binding signal (z-score),[18],-0.354
same,glycan array binding signal (z-score),[19],-0.138
same,glycan array binding signal (z-score),[20],-2.62
same,glycan array binding signal (z-score),[21],0.18
same,glycan array binding signal (z-score),[22],-0.729
same,glycan array binding signal (z-score),[23],0.258
same,glycan array binding signal (z-score),[24],-0.495
same,glycan array binding signal (z-score),[25],0.01
same,glycan array binding signal (z-score),[26],-1.35
same,glycan array binding signal (z-score),[27],1.54
same,glycan array binding signal (z-score),[28],-0.625
same,glycan array binding signal (z-score),[29],0.248
same,glycan array binding signal (z-score),[30],-0.189
same,glycan array binding signal (z-score),[31],-0.815
same,glycan array binding signal (z-score),[32],-0.184
same,glycan array binding signal (z-score),[33],0.588
same,glycan array binding signal (z-score),[34],0.772
same,glycan array binding signal (z-score),[35],-0.295
same,glycan array binding signal (z-score),[36],-0.432
same,glycan array binding signal (z-score),[37],0.075

# A different layout for part of the listing above:
binder | measurement | setting | value
MtEccB1 (Mycobacterium tuberculosis H37Rv), O69734 (protein) MGLRLTTKVQVSGWRFLLRRLEHAIVRRDTRMFDDPLQFYSRSIALGIVVAVLILAGAALLAYFKPQGKLGGTSLFTDRATNQLYVLLSGQLHPVYNLTSARLVLGNPANPATVKSSELSKLPMGQTVGIPGAPYATPVSAGSTSIWTLCDTVARADSTSPVVQTAVIAMPLEIDASIDPLQSHEAVLVSYQGETWIVTTKGRHAIDLTDRALTSSMGIPVTARPTPISEGMFNALPDMGPWQLPPIPAAGAPNSLGLPDDLVIGSVFQIHTDKGPQYYVVLPDGIAQVNATTAAALRATQAHGLVAPPAMVPSLVVRIAERVYPSPLPDEPLKIVSRPQDPALCWSWQRSAGDQSPQSTVLSGRHLPISPSAMNMGIKQIHGTATVYLDGGKFVALQSPDPRYTESMYYIDPQGVRYGVPNAETAKSLGLSSPQNAPWEIVRLLVDGPVLSKDAALLEHDTLPADPSPRKVPAGASGAP | glycan array binding signal (z-score) | [31] | -0.815
same | glycan array binding signal (z-score) | [32] | -0.184
same | glycan array binding signal (z-score) | [33] | 0.588

# — the supplement of paper PMC8728848
